Measurements published in patent publication US20180338996A1, “COMBINATION THERAPY FOR TRAUMATIC BRAIN INJURY” (UNIVERSITY OF SOUTH FLORIDA, priority 2017, published 2018).
Entries after “also recorded” stand apart in the source; their conditions may differ. At least one structure is not confirmed: it was looked up by name or label, or the drawing left a doubt.

Legend:
[1] = test system: degenerating neurons in the cortex; test: Neurodegeneration (Fluorojade staining) in cortex after lateral fluid percussion injury (LFPI) TBI; type: in vivo, rat; conditions: SD rats, 2 μg/kg Pioglitazone once a day for 3 days post-TBI and/or 10^6 hMSCs intranasally on day 3, 7 days post TBI
CCL20 = CCL20 expression in cortex by immunohistochemistry after LFPI TBI; type: in vivo, rat; conditions: SD rats, 2 μg/kg Pioglitazone once a day for 3 days post-TBI and/or 10^6 hMSCs intranasally on day 3, 7 days post TBI

For CCc1ccc(CCOc2ccc(CC3SC(=O)NC3=O)cc2)nc1 (centres unmarked) [PG, pioglitazone], the “neurodegeneration (Fluoro-Jade positive degenerating neurons) in the cortex” value [1] was “partially reduced” and the “CCL20 expression in the cortex (immunoreactivity, Image J)” value (CCL20) was “partially reduced; also recorded: reduces CCL20 expression”.
